{"source": "PubChem BioAssay AID624156", "about": "(Broad Institute, 2012)", "note": "Hit rate of the full screen: of about 46,000 compounds, about 900 (2%) were called active. Inconclusive results, whose numbers are uncertain, are shown with a selection of clear calls. Cut-off read from the data, not from the text of the source: active = ROS induction above about 79% (passing the limit was not always enough); inconclusive = no clear call, values can overlap the other calls."}
{"assay": "ROS inducers in U2OS cancer cells, primary screen, cell-based, H2DCF-DA fluorescence (AID 624156);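 note: 0% = DMSO vehicle median and 100% = reference compound median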", "conditions": "at 10 µM, hits give high values"}
{"compound": "Clc1ccc2c(c1)nc(SCc1nnc(-c3ccccc3)o1)n2C1CCCCC1", "ROS induction (% of piperlongumine)": "inconclusive: 79.9%"}
{"compound": "COc1cccc(-c2noc(-c3ccc(Br)o3)n2)c1", "ROS induction (% of piperlongumine)": "inconclusive: 614%"}
{"compound": "COC(=O)C1=CN(C(CC(C)C)C(=O)OC)C=C(C(=O)OC)C1c1ccc(Br)cc1", "note": "(stereo not drawn)", "ROS induction (% of piperlongumine)": "active: 95%"}
{"compound": "COc1cc2c(cc1OC)CN(C(=O)[C@@H]1[C@H]3C(=O)O[C@H](c4ccccc4)[C@H](c4ccccc4)N3[C@H](c3ccc(OCCO)cc3)[C@@]13C(=O)Nc1ccc(C#CC4(O)CCCCCC4)cc13)CC2", "ROS induction (% of piperlongumine)": "inconclusive: 85.4%"}
{"compound": "Cc1ccc(C)c(-c2csc(NC(=O)CCCc3ccccc3)c2C(N)=O)c1", "ROS induction (% of piperlongumine)": "inconclusive: 111%"}
{"compound": "N=c1sc2ccccc2n1C(=O)OCc1ccccc1", "ROS induction (% of piperlongumine)": "inconclusive: 81.5%"}
{"compound": "C[C@@H]1CN([C@H](C)CO)C(=O)Cc2cc(NC(=O)CCCCCC(=O)Nc3ccccc3N)ccc2O[C@@H]1CN(C)Cc1ccc(-c2ccccc2)cc1", "ROS induction (% of piperlongumine)": "inconclusive: 75.2%"}
{"compound": "COC(CNC(=O)c1cc(=O)[nH]c2ccc(Br)cc12)OC", "ROS induction (% of piperlongumine)": "inactive: -12.9%"}
{"compound": "C[C@@H]1CN([C@@H](C)CO)C(=O)c2cc(NC(=O)CCC(F)(F)F)ccc2O[C@H]1CN(C)Cc1ccc(C(F)(F)F)cc1", "ROS induction (% of piperlongumine)": "inconclusive: 134%"}
{"compound": "CN1C(=O)/C(=C(/C#N)C(N)=O)c2ccccc21", "ROS induction (% of piperlongumine)": "inactive: -11.8%"}
{"compound": "COC(=O)CSc1nnc(-c2sc3ccccc3c2Cl)n1-c1ccc(OC)cc1", "ROS induction (% of piperlongumine)": "inconclusive: 80.2%"}
{"compound": "CN(C)C(=O)[C@@]1(Cc2ccccc2)COC(c2ccc(OCCCO)cc2)=N1", "ROS induction (% of piperlongumine)": "inconclusive: 81.8%"}
{"compound": "C[C@H]1CN([C@@H](C)CO)C(=O)c2cc(N(C)C)ccc2O[C@@H]1CN(C)S(C)(=O)=O", "ROS induction (% of piperlongumine)": "inconclusive: 101%"}
{"compound": "C[C@@H]1CN([C@@H](C)CO)C(=O)c2cccc(NC(=O)Nc3ccc(C(F)(F)F)cc3)c2O[C@@H]1CN(C)S(=O)(=O)c1ccc(Cl)cc1", "ROS induction (% of piperlongumine)": "inconclusive: 86.8%"}
{"compound": "COC(=O)C1=C(C)NC(C)=C(C(=O)OCCN(C)Cc2ccccc2)C1c1cccc([N+](=O)[O-])c1", "note": "(stereo not drawn)", "ROS induction (% of piperlongumine)": "inconclusive: 92.2%"}
{"compound": "OCCNC(=S)NC12CC3CC(CC(C3)C1)C2", "ROS induction (% of piperlongumine)": "inactive: 3.79%"}
{"compound": "COc1ccc(CCC(=O)c2c(O)cc(O[C@@H]3O[C@H](CO)C(O)[C@H](O)C3O[C@@H]3O[C@@H](C)[C@H](O)[C@@H](O)[C@H]3O)cc2O)cc1O", "note": "(stereo partly drawn)", "ROS induction (% of piperlongumine)": "inconclusive: 198%"}
{"compound": "Cc1ccc(-c2ccc(=O)n(CCC(=O)NCCN3CCN(c4cccc(Cl)c4)CC3)n2)cc1", "ROS induction (% of piperlongumine)": "inactive: 15.8%"}
{"compound": "CCOC(=O)N(C)C[C@@H]1OCc2cn(nn2)CCCC(=O)N([C@H](C)CO)C[C@@H]1C", "ROS induction (% of piperlongumine)": "inconclusive: 90.1%"}
{"compound": "O=C1Oc2cc(O)cc(O)c2[C@@H](c2ccc(O)cc2)[C@H]1[C@H]1C(=O)Oc2cc(O)cc(O)c2[C@H]1c1ccc(O)cc1", "ROS induction (% of piperlongumine)": "inconclusive: 87.1%"}
{"compound": "C[C@@H]1CN([C@H](C)CO)C(=O)c2cc(NC(=O)NC3CCCCC3)ccc2O[C@H]1CN(C)C(=O)Nc1ccccc1", "ROS induction (% of piperlongumine)": "inconclusive: 87.7%"}
{"compound": "C=CCN(C(=O)CSc1nc2c(sc3ccccc32)c(=O)n1Cc1cccnc1)c1ccccc1", "ROS induction (% of piperlongumine)": "active: 154%"}
{"compound": "COc1ccc(NC(=O)N(C)C[C@H]2Oc3ccc(NC(=O)NC4CCCCC4)cc3CC(=O)N([C@H](C)CO)C[C@H]2C)cc1", "ROS induction (% of piperlongumine)": "active: 82.6%"}
{"compound": "CNC[C@@H]1Oc2ncc(Br)cc2C(=O)N([C@H](C)CO)C[C@@H]1C", "ROS induction (% of piperlongumine)": "inconclusive: 91.6%"}
{"compound": "COc1ccc(CN(C)C[C@H]2Oc3ccc(NS(=O)(=O)c4cccs4)cc3CC(=O)N([C@@H](C)CO)C[C@@H]2C)cc1", "ROS induction (% of piperlongumine)": "inconclusive: 76%"}
{"compound": "CSc1oc(-c2ccccc2)nc1S(=O)(=O)c1ccccc1", "ROS induction (% of piperlongumine)": "inconclusive: 89.3%"}
{"compound": "Cc1ccc(S(=O)(=O)Nc2ccc3c(c2)C(=O)N([C@H](C)CO)C[C@H](C)[C@H](CN(C)S(=O)(=O)c2ccc(Cl)cc2)OCCCC[C@@H](C)O3)cc1", "ROS induction (% of piperlongumine)": "inconclusive: 104%"}
{"compound": "C[C@@H]1CN([C@@H](C)CO)C(=O)c2cc(NC(=O)Nc3ccc(C(F)(F)F)cc3)ccc2O[C@@H]1CN(C)Cc1ccc(C(=O)Nc2ccccc2N)cc1", "ROS induction (% of piperlongumine)": "inconclusive: 87.8%"}
{"compound": "NC(=O)COc1ccc(/C=N/NC(=O)c2ccccc2O)cc1", "ROS induction (% of piperlongumine)": "inactive: -7%"}
{"compound": "C[C@H]1CN([C@@H](C)CO)C(=O)Cc2cc(NS(C)(=O)=O)ccc2O[C@@H]1CN(C)Cc1ccccc1", "ROS induction (% of piperlongumine)": "active: 131%"}
{"compound": "CCCCc1c(C)c(C#N)c2nc3ccccc3n2c1NCCN1CCOCC1", "ROS induction (% of piperlongumine)": "active: 95.7%"}
{"compound": "CCOc1ccccc1NC(=O)CSc1nc2sc(C)c(C)c2c(=O)n1-c1ccccc1", "ROS induction (% of piperlongumine)": "inactive: 15.9%"}
{"compound": "C=C1C(=O)O[C@@H]2[C@H]3O[C@]3(C)CCC=C(C)CC[C@@H]12", "ROS induction (% of piperlongumine)": "active: 101%"}
{"compound": "Cc1ccc2nc(Nc3nc(CSc4nnc(C)s4)cc(=O)[nH]3)nc(C)c2c1", "ROS induction (% of piperlongumine)": "inactive: 49.2%"}
{"compound": "C[C@@H]1CN([C@@H](C)CO)C(=O)c2cc(NC(=O)C3CC3)ccc2O[C@H]1CN(C)Cc1ccccc1", "ROS induction (% of piperlongumine)": "inconclusive: 78.8%"}
{"compound": "N#C/C(=C(\\O)c1ccc(C(=O)c2ccccc2)cc1)c1nc2ccccc2s1", "ROS induction (% of piperlongumine)": "inconclusive: 76.7%"}
{"compound": "C=C(C)C(=O)O[C@H]1[C@H]2C(=C)C(=O)O[C@@H]2C[C@@H](C)/C=C/C(=O)[C@](C)(O)[C@@H]1OC(C)=O", "ROS induction (% of piperlongumine)": "inconclusive: 83.1%"}
{"compound": "C[C@@H]1CN([C@H](C)CO)C(=O)c2cc(NC(=O)NC3CCCCC3)ccc2O[C@@H]1CN(C)C(=O)NC1CCCCC1", "ROS induction (% of piperlongumine)": "inconclusive: 117%"}
{"compound": "C[C@@H]1CN([C@@H](C)CO)C(=O)c2cc(NS(=O)(=O)c3cn(C)cn3)ccc2O[C@@H]1CN(C)Cc1ccc(-c2ccccc2)cc1", "ROS induction (% of piperlongumine)": "inconclusive: 166%"}
{"compound": "COc1ccccc1CNc1nc2c(-c3cccc(C)c3)nnn2c2ccccc12", "ROS induction (% of piperlongumine)": "inconclusive: 118%"}
{"compound": "O=C(NCc1ccccc1)c1ccc2c(c1)sc1nc(-c3ccccc3)cn12", "ROS induction (% of piperlongumine)": "inconclusive: 80.7%"}
{"compound": "Cc1ccc(S(=O)(=O)Nc2ccc3c(c2)C(=O)N([C@@H](C)CO)C[C@H](C)[C@@H](CN(C)S(=O)(=O)c2ccc(Cl)cc2)O3)cc1", "ROS induction (% of piperlongumine)": "inconclusive: 105%"}
{"compound": "CCc1cc2c(SCC(=O)c3ccc(C)cc3)ncnc2s1", "ROS induction (% of piperlongumine)": "inconclusive: 94.1%"}
